Test results reported in US11021457B2, “Class of isoindolone-imide ring-1,3-dione-2-ene compounds, composition and use thereof” (WIGEN BIOMEDICINE TECHNOLOGY (SHANGHAI) CO., LTD., priority 2017, dated 2021).
Structures were worked out from names or drawings and are uncertain.

How the values were obtained:
LC3B = LC3B (Homo sapiens (Human), UniProt Q9GZQ8); assay: Fluorescence polarization experiment targeting LC3B (GST-LC3B with FITC-labeled peptide); settings: GST-LC3B 180 nM, FITC-labeled peptide 18 nM, 25° C.
K562 = assay: Inhibition of tumor cell proliferation, CellTiter-Glo, K562; format: cell-based; settings: compound concentration 50 μM, 72 hours
MDA-MB-453 = assay: Inhibition of tumor cell proliferation, CellTiter-Glo, MDA-MB-453; format: cell-based; settings: compound concentration 50 μM, 72 hours
RPMI-8226 = assay: Inhibition of tumor cell proliferation, CellTiter-Glo, RPMI-8226; format: cell-based; settings: compound concentration 50 μM, 72 hours
SU-DHL6 = assay: Inhibition of tumor cell proliferation, CellTiter-Glo, SU-DHL6; format: cell-based; settings: compound concentration 50 μM, 72 hours
BxPC-3 = assay: Inhibition of tumor cell proliferation, CellTiter-Glo, BxPC-3; format: cell-based; settings: compound concentration 50 μM, 72 hours
A549 = assay: Inhibition of tumor cell proliferation, CellTiter-Glo, A549; format: cell-based; settings: compound concentration 50 μM, 72 hours

| Compound | IC50 (LC3B) [µM] | Inhibitory activity against proliferation (cell survival rate) K562 (K562) | Inhibitory activity against proliferation (cell survival rate) MDA-MB-453 (MDA-MB-453) | Inhibitory activity against proliferation (cell survival rate) RPMI-8226 (RPMI-8226) | Inhibitory activity against proliferation (cell survival rate) SU-DHL6 (SU-DHL6) | Inhibitory activity against proliferation (cell survival rate) BxPC-3 (BxPC-3) | Inhibitory activity against proliferation (cell survival rate) A549 (A549) |
| --- | --- | --- | --- | --- | --- | --- | --- |
| O=C1CCC(N2C(=O)c3cccc(NC(=O)COC=C4C(=O)CC(c5ccccc5)CC4=O)c3C2=O)C(=O)N1 (centres unmarked) | 100 to 1000 | + (60≤survival rate (%)<90) | +++ (survival rate (%)≤30) | + (60≤survival rate (%)<90) | +++ (survival rate (%)≤30) | + (60≤survival rate (%)<90) | + (60≤survival rate (%)<90) |
| O=C1CCC(N2C(=O)c3cccc(NC(=O)CSC=C4C(=O)CC(c5ccccc5)CC4=O)c3C2=O)C(=O)N1 (centres unmarked) | 100 to 1000 | +++ (survival rate (%)≤30) | +++ (survival rate (%)≤30) | +++ (survival rate (%)≤30) | +++ (survival rate (%)≤30) | + (60≤survival rate (%)<90) | +++ (survival rate (%)≤30) |
